These are yes or no findings as the source states them, for the method shown. Binding seen in cells or lysates may run through a third protein. Some binding calls cover weakened binding; strength is not graded here. For part of these data: Tags and fused reporters may be left off the sequences shown. Values belong to the molecule of their own block, whether it stands above or below them.
Key:
[1] = target: T1, Stathmin1 (endogenous) (human (endogenous in HeLa, HepG2, MCF7)) (UniProt P16949); experiment: co-IP; cells transfected with tagged constructs (Myc-tagged PIWIL1 or its deletion mutants, GFP-tagged STMN1 mutants); lysate with 1-3 ug antibody or IgG overnight, protein A+G agarose beads 2 h; Western blot
T1 sequence: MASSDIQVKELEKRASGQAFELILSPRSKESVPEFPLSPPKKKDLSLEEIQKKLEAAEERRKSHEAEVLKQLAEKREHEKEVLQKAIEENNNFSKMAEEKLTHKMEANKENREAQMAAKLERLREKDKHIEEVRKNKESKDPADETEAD

Chains of the proteins cited; added tags and fusions are not shown.
UniProt Q96J94: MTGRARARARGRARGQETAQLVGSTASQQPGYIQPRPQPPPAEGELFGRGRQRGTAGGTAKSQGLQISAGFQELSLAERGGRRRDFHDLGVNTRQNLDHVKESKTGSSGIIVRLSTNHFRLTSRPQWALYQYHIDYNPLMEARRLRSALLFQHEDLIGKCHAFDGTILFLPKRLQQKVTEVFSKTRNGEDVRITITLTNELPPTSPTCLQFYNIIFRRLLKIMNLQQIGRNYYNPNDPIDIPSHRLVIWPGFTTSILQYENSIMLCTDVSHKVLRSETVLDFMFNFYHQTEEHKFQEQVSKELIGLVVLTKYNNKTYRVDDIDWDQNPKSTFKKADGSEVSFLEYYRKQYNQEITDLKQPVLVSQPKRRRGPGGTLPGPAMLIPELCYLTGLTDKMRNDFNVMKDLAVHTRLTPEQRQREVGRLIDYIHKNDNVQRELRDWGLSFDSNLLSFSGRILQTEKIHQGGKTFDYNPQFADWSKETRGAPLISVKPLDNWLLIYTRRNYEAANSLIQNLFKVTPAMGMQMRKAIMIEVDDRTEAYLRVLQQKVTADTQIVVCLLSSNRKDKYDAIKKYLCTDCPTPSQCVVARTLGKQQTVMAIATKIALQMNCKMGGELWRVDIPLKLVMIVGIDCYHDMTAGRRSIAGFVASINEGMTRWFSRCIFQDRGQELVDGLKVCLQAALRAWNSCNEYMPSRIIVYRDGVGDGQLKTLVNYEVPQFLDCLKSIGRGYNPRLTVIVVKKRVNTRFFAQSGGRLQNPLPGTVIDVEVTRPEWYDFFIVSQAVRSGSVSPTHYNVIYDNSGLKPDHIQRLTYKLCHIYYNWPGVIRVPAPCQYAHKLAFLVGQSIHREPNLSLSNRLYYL

[2] = target: T1, Stathmin1 (endogenous) (human (endogenous in HeLa, HepG2, MCF7)); experiment: co-IP; cytosolic (C)/nuclear (N) fractionation of cells
[3] = target: T1, Stathmin1 (endogenous) (human (endogenous in HeLa, HepG2, MCF7)); experiment: co-IP; endogenous proteins; cell lysate (HeLa, HepG2, MCF7) incubated with 1-3 ug target antibody or IgG overnight, then protein A+G agarose beads 2 h; Western blot; in some panels HeLa cells transfected with PIWIL1 or shPIWIL1 vectors
HA-tagged STMN1 = target: T2, HA-tagged STMN1 (UniProt P16949); experiment: co-IP; two-step immunoprecipitation: HeLa cells transfected with control vector or HA-STMN1; first IP with anti-HA, elution with 4xHA peptide, second IP with anti-PIWIL1 or IgG
T2 sequence: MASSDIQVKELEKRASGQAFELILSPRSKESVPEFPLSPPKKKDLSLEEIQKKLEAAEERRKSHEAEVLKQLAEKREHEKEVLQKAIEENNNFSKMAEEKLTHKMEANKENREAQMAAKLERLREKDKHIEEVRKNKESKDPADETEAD

[4] = target: T3, STMN1 (in vitro translated) (UniProt P16949); experiment: co-IP; PIWIL1 and STMN1 made separately with the TNT Quick Coupled in vitro transcription/translation system (30°C, 90 min); 30 ul of each mixed in 200 ul lysis buffer for co-IP
T3 sequence: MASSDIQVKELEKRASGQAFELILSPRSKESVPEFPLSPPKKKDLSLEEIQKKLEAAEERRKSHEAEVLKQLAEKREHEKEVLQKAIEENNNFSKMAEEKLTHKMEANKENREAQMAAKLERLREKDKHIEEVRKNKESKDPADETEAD

[5] = target: T1, Stathmin1 (endogenous) (human (endogenous in HeLa, HepG2, MCF7)); experiment: co-IP; endogenous proteins; cell lysate (HeLa, HepG2, MCF7) incubated with 1-3 ug target antibody or IgG overnight, then protein A+G agarose beads 2 h; Western blot; in some panels HeLa cells transfected with PIWIL1 or shPIWIL1 vectors; remark: listed apart in the source

Molecule: PIWIL1 (endogenous) (from UniProt Q96J94 1-861)
- binding [2]: binds
- binding [3]: binds
- binding (HA-tagged STMN1): binds

B1: RLIM (enzyme, UniProt Q9NVW2 1-624)
chain: MENSDSNDKGSGDQSAAQRRSQMDRLDREEAFYQFVNNLSEEDYRLMRDNNLLGTPGESTEEELLRRLQQIKEGPPPQNSDENRGGDSSDDVSNGDSIIDWLNSVRQTGNTTRSGQRGNQSWRAVSRTNPNSGDFRFSLEINVNRNNGSQNSENENEPSARRSSGENVENNSQRQVENPRSESTSARPSRSERNSTEALTEVPPTRGQRRARSRSPDHRRTRARAERSRSPLHPMSEIPRRSHHSISSQTFEHPLVNETEGSSRTRHHVTLRQQISGPELLSRGLFAASGTRNASQGAGSSDTAASGESTGSGQRPPTIVLDLQVRRVRPGEYRQRDSIASRTRSRSQTPNNTVTYESERGGFRRTFSRSERAGVRTYVSTIRIPIRRILNTGLSETTSVAIQTMLRQIMTGFGELSYFMYSDSDSEPTGSVSNRNMERAESRSGRGGSGGGSSSGSSSSSSSSSSSSSSSSSSSSPSSSSGGESSETSSDLFEGSNEGSSSSGSSGARREGRHRAPVTFDESGSLPFLSLAQFFLLNEDDDDQPRGLTKEQIDNLAMRSFGENDALKTCSVCITEYTEGNKLRKLPCSHEYHVHCIDRWLSENSTCPICRRAVLASGNRESVV
- binding [5]: binds

The next lines start with the values.

- binding [1]: binds
Molecule: Myc-tagged PIWIL1 (from UniProt Q96J94 1-861)

- binding [4]: binds
Molecule: PIWIL1 (in vitro translated) (from UniProt Q96J94 1-861)

Reference: publication PMC4695026
